Test results taken from publication PMC4873738, “A Small Molecule Inhibitor of PDK1/PLCγ1 Interaction Blocks Breast and Melanoma Cancer Cell Invasion” (Scientific Reports, 2016).
These are yes or no findings as the source states them, for the method shown. In cells and extracts the contact can be indirect. Some binding calls cover weakened binding; strength is not graded here.

T1: phospholipase Cγ1 (PLCγ1), overexpressed from PRK5-PLCγ1 (UniProt P19174)
T1 sequence: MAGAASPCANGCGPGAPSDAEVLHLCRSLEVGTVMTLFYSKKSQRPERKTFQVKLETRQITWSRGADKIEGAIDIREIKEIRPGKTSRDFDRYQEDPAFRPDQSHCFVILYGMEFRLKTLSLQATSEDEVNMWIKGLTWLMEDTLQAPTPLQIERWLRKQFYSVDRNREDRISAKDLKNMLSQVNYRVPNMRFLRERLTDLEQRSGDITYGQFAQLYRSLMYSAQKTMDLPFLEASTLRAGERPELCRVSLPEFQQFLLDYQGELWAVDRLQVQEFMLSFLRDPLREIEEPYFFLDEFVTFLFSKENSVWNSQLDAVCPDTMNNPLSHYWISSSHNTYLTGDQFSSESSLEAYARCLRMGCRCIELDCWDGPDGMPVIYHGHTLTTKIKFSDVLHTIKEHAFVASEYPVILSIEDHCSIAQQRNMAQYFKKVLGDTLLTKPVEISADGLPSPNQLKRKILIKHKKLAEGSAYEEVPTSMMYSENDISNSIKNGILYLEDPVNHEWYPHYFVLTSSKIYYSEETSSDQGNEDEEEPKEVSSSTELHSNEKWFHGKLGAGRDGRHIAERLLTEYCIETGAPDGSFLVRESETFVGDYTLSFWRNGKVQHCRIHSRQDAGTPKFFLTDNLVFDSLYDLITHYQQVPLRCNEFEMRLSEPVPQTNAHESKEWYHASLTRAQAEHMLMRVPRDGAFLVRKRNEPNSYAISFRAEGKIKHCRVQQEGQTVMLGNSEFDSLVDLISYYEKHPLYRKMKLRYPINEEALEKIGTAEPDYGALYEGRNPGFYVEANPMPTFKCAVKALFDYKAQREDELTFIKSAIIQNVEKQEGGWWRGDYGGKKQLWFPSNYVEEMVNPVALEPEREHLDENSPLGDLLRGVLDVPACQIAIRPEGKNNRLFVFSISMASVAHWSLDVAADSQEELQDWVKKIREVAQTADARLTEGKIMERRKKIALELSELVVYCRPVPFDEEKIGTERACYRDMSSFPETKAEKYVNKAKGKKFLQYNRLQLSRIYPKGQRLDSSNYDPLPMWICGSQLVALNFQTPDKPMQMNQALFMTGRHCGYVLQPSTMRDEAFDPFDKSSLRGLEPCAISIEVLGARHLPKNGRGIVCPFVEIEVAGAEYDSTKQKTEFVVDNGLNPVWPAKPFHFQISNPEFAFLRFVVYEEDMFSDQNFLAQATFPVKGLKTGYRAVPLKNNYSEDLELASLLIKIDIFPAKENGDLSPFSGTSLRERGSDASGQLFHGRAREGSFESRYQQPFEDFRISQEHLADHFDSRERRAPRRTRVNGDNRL

T2: phospholipase Cγ1 (PLCγ1), endogenous (human (endogenous in MDA-MB-231)) (UniProt P19174)
T2 sequence: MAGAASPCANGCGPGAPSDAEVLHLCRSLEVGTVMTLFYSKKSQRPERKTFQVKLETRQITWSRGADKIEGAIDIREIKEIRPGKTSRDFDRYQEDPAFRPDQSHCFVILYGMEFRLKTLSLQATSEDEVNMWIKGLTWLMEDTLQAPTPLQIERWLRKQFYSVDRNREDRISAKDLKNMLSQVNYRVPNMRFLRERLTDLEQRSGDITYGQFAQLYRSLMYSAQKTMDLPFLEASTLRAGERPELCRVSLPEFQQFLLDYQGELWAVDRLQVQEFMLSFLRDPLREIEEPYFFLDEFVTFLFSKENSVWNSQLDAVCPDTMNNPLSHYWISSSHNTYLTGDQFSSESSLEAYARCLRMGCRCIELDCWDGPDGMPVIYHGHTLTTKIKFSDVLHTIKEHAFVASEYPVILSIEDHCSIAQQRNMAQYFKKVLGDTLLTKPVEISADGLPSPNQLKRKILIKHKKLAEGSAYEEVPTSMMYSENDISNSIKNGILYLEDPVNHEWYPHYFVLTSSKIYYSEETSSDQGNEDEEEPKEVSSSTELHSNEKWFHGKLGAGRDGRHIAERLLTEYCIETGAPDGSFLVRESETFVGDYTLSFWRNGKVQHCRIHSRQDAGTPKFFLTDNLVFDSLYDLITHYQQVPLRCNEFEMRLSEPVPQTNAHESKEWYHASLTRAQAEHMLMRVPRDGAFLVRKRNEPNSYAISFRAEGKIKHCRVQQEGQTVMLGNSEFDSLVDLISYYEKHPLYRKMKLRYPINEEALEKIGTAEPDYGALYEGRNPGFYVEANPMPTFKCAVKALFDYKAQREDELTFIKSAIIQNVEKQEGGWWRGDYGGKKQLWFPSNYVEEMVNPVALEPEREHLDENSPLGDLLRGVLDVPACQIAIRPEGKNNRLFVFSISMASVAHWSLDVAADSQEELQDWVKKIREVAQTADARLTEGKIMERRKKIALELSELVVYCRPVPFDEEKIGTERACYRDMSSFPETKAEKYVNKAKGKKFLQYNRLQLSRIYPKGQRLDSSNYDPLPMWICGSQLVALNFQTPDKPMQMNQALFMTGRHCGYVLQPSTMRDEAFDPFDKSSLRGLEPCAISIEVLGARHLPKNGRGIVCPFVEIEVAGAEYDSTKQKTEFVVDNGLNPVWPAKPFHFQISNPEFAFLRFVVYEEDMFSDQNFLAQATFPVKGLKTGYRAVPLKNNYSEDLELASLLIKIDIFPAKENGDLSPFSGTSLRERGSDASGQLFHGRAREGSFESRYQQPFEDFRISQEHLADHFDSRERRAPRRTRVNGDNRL


How the values were obtained:
[1] = target: T1, phospholipase Cγ1 (PLCγ1), overexpressed from PRK5-PLCγ1; test: condition: only cells treated with 50 μM 2-O-Bn-InsP5; FRET or BRET; as a1, but cells treated with 50 μM 2-O-Bn-InsP5 for 30 minutes before and during EGF stimulation
[2] = target: T1, phospholipase Cγ1 (PLCγ1), overexpressed from PRK5-PLCγ1; test: FRET or BRET; steady-state FRET by acceptor photo-bleaching in fixed MDA-MB-231 co-expressing PLCγ1 and PDK1; stained with anti-PLCγ1 and anti-PDK1 antibodies and Alexa-488 and Alexa-555 secondary antibodies; EGF 50 ng/ml for 3 min; measured at protrusions near the plasma membrane
[3] = target: T2, phospholipase Cγ1 (PLCγ1), endogenous (human (endogenous in MDA-MB-231)); test: co-IP; endogenous proteins from MDA-MB-231 lysate (50 mM Tris pH 8.0, 50 mM KCl, 1% NP-40); anti-PLCγ1 antibody cross-linked to protein G Dynabeads, overnight at 4 °C; blot with anti-PDK1; cells stimulated with EGF 50 ng/ml, untreated or treated with 50 μM 2-O-Bn-InsP5 for one hour

Row | binding [1] | binding [2] | binding [3] | Binder
1 | no binding | binds | – | 3-phosphoinositide-dependent protein kinase 1 (PDK1), overexpressed from pOZ-PDK1 (enzyme, UniProt O15530 1-556) MARTTSQLYDAVPIQSSVVLCSCPSPSMVRTQTESSTPPGIPGGSRQGPAMDGTAAEPRPGAGSLQHAQPPPQPRKKRPEDFKFGKILGEGSFSTVVLARELATSREYAIKILEKRHIIKENKVPYVTRERDVMSRLDHPFFVKLYFTFQDDEKLYFGLSYAKNGELLKYIRKIGSFDETCTRFYTAEIVSALEYLHGKGIIHRDLKPENILLNEDMHIQITDFGTAKVLSPESKQARANSFVGTAQYVSPELLTEKSACKSSDLWALGCIIYQLVAGLPPFRAGNEYLIFQKIIKLEYDFPEKFFPKARDLVEKLLVLDATKRLGCEEMEGYGPLKAHPFFESVTWENLHQQTPPKLTAYLPAMSEDDEDCYGNYDNLLSQFGCMQVSSSSSSHSLSASDTGLPQRSGSNIEQYIHDLDSNSFELDLQFSEDEKRLLLEKQAGGNPWHQFVENNLILKMGPVDKRKGLFARRRQLLLTEGPHLYYVDPVNKVLKGEIPWSQELRPEAKNFKTFFVHTPNRTYYLMDPSGNAHKWCRKIQEVWRQRYQSHPDAAVQ
2 | – | – | binds | 3-phosphoinositide-dependent protein kinase 1 (PDK1), endogenous (enzyme, UniProt O15530 1-556) MARTTSQLYDAVPIQSSVVLCSCPSPSMVRTQTESSTPPGIPGGSRQGPAMDGTAAEPRPGAGSLQHAQPPPQPRKKRPEDFKFGKILGEGSFSTVVLARELATSREYAIKILEKRHIIKENKVPYVTRERDVMSRLDHPFFVKLYFTFQDDEKLYFGLSYAKNGELLKYIRKIGSFDETCTRFYTAEIVSALEYLHGKGIIHRDLKPENILLNEDMHIQITDFGTAKVLSPESKQARANSFVGTAQYVSPELLTEKSACKSSDLWALGCIIYQLVAGLPPFRAGNEYLIFQKIIKLEYDFPEKFFPKARDLVEKLLVLDATKRLGCEEMEGYGPLKAHPFFESVTWENLHQQTPPKLTAYLPAMSEDDEDCYGNYDNLLSQFGCMQVSSSSSSHSLSASDTGLPQRSGSNIEQYIHDLDSNSFELDLQFSEDEKRLLLEKQAGGNPWHQFVENNLILKMGPVDKRKGLFARRRQLLLTEGPHLYYVDPVNKVLKGEIPWSQELRPEAKNFKTFFVHTPNRTYYLMDPSGNAHKWCRKIQEVWRQRYQSHPDAAVQ
